No constants are given. Whether binding was seen depends on the method and setting. In cells and extracts the contact can be indirect. Some binding calls cover weakened binding; strength is not graded here.

Protein sequences, listed by entry. Tags and fused reporters are not part of them.
UniProt Q04726: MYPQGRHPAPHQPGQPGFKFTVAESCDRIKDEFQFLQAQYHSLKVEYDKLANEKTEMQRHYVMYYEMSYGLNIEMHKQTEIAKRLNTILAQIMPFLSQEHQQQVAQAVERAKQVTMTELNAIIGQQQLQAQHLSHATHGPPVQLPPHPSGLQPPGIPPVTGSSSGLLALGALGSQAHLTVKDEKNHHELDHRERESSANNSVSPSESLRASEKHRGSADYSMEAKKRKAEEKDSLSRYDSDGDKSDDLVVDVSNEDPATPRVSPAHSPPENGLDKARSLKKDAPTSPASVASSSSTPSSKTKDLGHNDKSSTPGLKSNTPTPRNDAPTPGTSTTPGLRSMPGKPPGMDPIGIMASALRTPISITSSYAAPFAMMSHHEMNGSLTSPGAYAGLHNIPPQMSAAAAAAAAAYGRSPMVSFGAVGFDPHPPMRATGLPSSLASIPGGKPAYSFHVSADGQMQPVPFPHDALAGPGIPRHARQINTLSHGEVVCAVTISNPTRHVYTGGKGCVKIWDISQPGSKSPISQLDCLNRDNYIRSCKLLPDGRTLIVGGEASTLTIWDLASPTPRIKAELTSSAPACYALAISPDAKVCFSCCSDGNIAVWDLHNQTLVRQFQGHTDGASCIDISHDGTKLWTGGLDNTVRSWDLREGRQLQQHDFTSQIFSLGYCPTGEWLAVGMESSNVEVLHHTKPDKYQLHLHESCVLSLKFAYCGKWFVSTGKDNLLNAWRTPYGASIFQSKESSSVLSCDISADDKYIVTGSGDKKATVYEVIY
UniProt Q9UJU2: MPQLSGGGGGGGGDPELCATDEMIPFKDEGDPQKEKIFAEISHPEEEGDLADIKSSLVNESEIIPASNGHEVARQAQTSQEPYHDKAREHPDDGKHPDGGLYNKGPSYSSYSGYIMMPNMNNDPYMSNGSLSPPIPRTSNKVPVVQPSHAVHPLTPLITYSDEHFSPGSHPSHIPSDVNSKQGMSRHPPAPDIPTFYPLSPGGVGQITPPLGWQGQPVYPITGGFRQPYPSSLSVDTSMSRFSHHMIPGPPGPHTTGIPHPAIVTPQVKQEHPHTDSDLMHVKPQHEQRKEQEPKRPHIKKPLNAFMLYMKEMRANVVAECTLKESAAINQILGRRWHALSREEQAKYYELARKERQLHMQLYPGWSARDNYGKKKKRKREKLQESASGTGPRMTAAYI

This assay has as its target Human TLE3 (a homolog of Groucho2) (human) (UniProt Q04726). Briefly: co-immunoprecipitation of tagged proteins.

For the substance Human LEF1 (from UniProt Q9UJU2 1-399), the binding result was “binds”.

The values above are taken from patent US20110318738A1, “IDENTIFICATION AND REGULATION OF A NOVEL DNA DEMETHYLASE SYSTEM” (University of Utah Research Foundation, priority 2008, published 2011).
